The values that follow come from the supplement of paper PMC11264405.

Holding throughout (assay): minimum inhibitory concentration
Compound in one assay: CCC[C@@H]1C[C@@H](C(=O)N[C@@H]([C@H]2O[C@H](SC)[C@H](O)[C@@H](O)[C@H]2O)[C@H](C)Cl)N(C)C1 [clindamycin]
Compound in a further assay: Cc1ncc([N+](=O)[O-])n1CCO [metronidazole]
Compound in a further assay: CN[C@H](CC(C)C)C(=O)N[C@H]1C(=O)N[C@@H](CC(N)=O)C(=O)N[C@H]2C(=O)N[C@H]3C(=O)N[C@H](C(=O)N[C@H](C(=O)O)c4cc(O)cc(O)c4-c4cc3ccc4O)[C@H](O)c3ccc(c(Cl)c3)Oc3cc2cc(c3O[C@@H]2O[C@H](CO)[C@@H](O)[C@H](O)[C@H]2O[C@H]2C[C@](C)(N)[C@H](O)[C@H](C)O2)Oc2ccc(cc2Cl)[C@H]1O [vancomycin]
Compound in a further assay: CC(=O)NC[C@H]1CN(c2ccc(N3CCOCC3)c(F)c2)C(=O)O1 [linezolid]
Compound in a further assay: CO[C@H]1/C=C/O[C@@]2(C)Oc3c(C)c(O)c4c(O)c(c(/C=N/N5CCN(C)CC5)c(O)c4c3C2=O)NC(=O)/C(C)=C\C=C\[C@H](C)[C@H](O)[C@@H](C)[C@@H](O)[C@@H](C)[C@H](OC(C)=O)[C@@H]1C [rifampicin]
Compound in a further assay: C[C@@H](O)[C@H]1C(=O)N2C(C(=O)O)=C(S[C@@H]3CN[C@H](C(=O)N(C)C)C3)[C@H](C)[C@H]12 [meropenem]
Compound in the next assay: CN(C)c1cc(NC(=O)CNC(C)(C)C)c(O)c2c1C[C@H]1C[C@H]3[C@H](N(C)C)C(O)=C(C(N)=O)C(=O)[C@@]3(O)C(O)=C1C2=O [tigecycline]
Compound in another assay: C[C@@H](O)[C@H]1C(=O)N2C(C(=O)O)=C(SCCNC=N)C[C@H]12 [imipenem]
Compound in the next assay: CCc1c(Cl)c(O)c(Cl)c(O)c1C(=O)O[C@H]1[C@H](O)[C@H](OC)[C@H](OC/C2=C\C=C\C[C@H](O)/C(C)=C/[C@H](CC)[C@@H](O[C@@H]3OC(C)(C)[C@@H](OC(=O)C(C)C)[C@H](O)[C@@H]3O)/C(C)=C/C(C)=C/C[C@@H]([C@@H](C)O)OC2=O)O[C@@H]1C [fidaxomicin]

As for “Clostridioides difficile PCR ribotype 001 isolate #1 (European region: East, country: Slovakia, isolate source: Human, ribotype: 001)”, the minimum inhibitory concentration in the assay with clindamycin is > 128 µg/mL; in the assay with metronidazole it was 0.25 µg/mL; with vancomycin it was 0.5 µg/mL; with linezolid, < 0.125 µg/mL; with rifampicin it was < 0.001 µg/mL; with meropenem, 1 µg/mL. The minimum inhibitory concentration is < 0.03 µg/mL with tigecycline, 2 µg/mL with imipenem and 0.015 µg/mL in the assay with fidaxomicin.

As to “Clostridioides difficile PCR ribotype 001 isolate #2 (European region: East, country: Romania, isolate source: Human, ribotype: 001)”, the minimum inhibitory concentration in the assay with clindamycin was > 128 µg/mL; with metronidazole, 0.5 µg/mL; in the assay with vancomycin, 0.5 µg/mL; with linezolid, 2 µg/mL; in the assay with rifampicin, < 0.001 µg/mL; with meropenem, 4 µg/mL. In addition, the values for the minimum inhibitory concentration in the assay with tigecycline, with imipenem and with fidaxomicin were < 0.03 µg/mL, 8 µg/mL and 0.008 µg/mL, respectively.

Consider “Clostridioides difficile PCR ribotype 001 isolate #3 (European region: East, country: Romania, isolate source: Human, ribotype: 001)”, for which the minimum inhibitory concentration is 1 µg/mL with metronidazole; < 0.125 µg/mL in the assay with vancomycin; 1 µg/mL in the assay with linezolid; < 0.001 µg/mL with rifampicin; 4 µg/mL with meropenem; < 0.03 µg/mL with tigecycline. Moreover, the minimum inhibitory concentration with imipenem came to 8 µg/mL; with fidaxomicin it was 0.004 µg/mL.

As to “Clostridioides difficile PCR ribotype 001 isolate #4 (European region: East, country: Slovakia, isolate source: Human, ribotype: 001)”, the minimum inhibitory concentration with clindamycin is > 128 µg/mL; with metronidazole, 0.5 µg/mL; with vancomycin, < 0.125 µg/mL; with linezolid, 2 µg/mL; in the assay with rifampicin, < 0.001 µg/mL; with meropenem it was 2 µg/mL. The minimum inhibitory concentration in the assay with tigecycline is < 0.03 µg/mL; in the assay with imipenem, 2 µg/mL; in the assay with fidaxomicin it was 0.004 µg/mL.

For “Clostridioides difficile PCR ribotype 001 isolate #5 (European region: North, country: UK, isolate source: Human, ribotype: 001)”, the minimum inhibitory concentration was 1 µg/mL in the assay with clindamycin; < 0.125 µg/mL with metronidazole; 0.5 µg/mL in the assay with vancomycin; 2 µg/mL in the assay with linezolid; < 0.001 µg/mL in the assay with rifampicin; 4 µg/mL with meropenem. The minimum inhibitory concentration with tigecycline was < 0.03 µg/mL; with imipenem, 2 µg/mL; with fidaxomicin it was 0.015 µg/mL.

On to “Clostridioides difficile PCR ribotype 001 isolate #6 (European region: South, country: Spain, isolate source: Human, ribotype: 001)”, for which the minimum inhibitory concentration was 1 µg/mL in the assay with clindamycin; 0.25 µg/mL in the assay with metronidazole; 0.5 µg/mL with vancomycin; 2 µg/mL with linezolid; < 0.001 µg/mL with rifampicin; 2 µg/mL with meropenem. Further, the minimum inhibitory concentration was 0.06 µg/mL with tigecycline, 4 µg/mL in the assay with imipenem and 0.008 µg/mL in the assay with fidaxomicin.

Take “Clostridioides difficile PCR ribotype 001 isolate #7 (European region: South, country: Spain, isolate source: Human, ribotype: 001)”: the minimum inhibitory concentration in the assay with clindamycin is 8 µg/mL; in the assay with metronidazole, 0.25 µg/mL; with vancomycin it was 0.5 µg/mL; with linezolid, 2 µg/mL; with rifampicin, < 0.001 µg/mL; with meropenem, 4 µg/mL. Moreover, the minimum inhibitory concentration in the assay with tigecycline is 0.06 µg/mL; with imipenem, 4 µg/mL; with fidaxomicin it was 0.004 µg/mL.

Regarding “Clostridioides difficile PCR ribotype 001 isolate #8 (European region: South, country: Spain, isolate source: Human, ribotype: 001)”, the minimum inhibitory concentration was > 128 µg/mL in the assay with clindamycin; < 0.125 µg/mL with metronidazole; 1 µg/mL with vancomycin; 2 µg/mL in the assay with linezolid; 0.03 µg/mL with rifampicin; 4 µg/mL in the assay with meropenem. Further, the minimum inhibitory concentration was 0.5 µg/mL with tigecycline, 4 µg/mL in the assay with imipenem and 0.008 µg/mL with fidaxomicin.

For the test system “Clostridioides difficile PCR ribotype 001 isolate #9 (European region: North, country: UK, isolate source: Human, ribotype: 001)”, the minimum inhibitory concentration with clindamycin was 2 µg/mL; with metronidazole, < 0.125 µg/mL; with vancomycin it was 0.5 µg/mL; with linezolid it was 2 µg/mL; in the assay with rifampicin it was < 0.001 µg/mL; in the assay with meropenem, 2 µg/mL. Further, the minimum inhibitory concentration is < 0.03 µg/mL with tigecycline, 2 µg/mL with imipenem and 0.06 µg/mL with fidaxomicin.

For the test system “Clostridioides difficile PCR ribotype 001 isolate #10 (European region: South, country: Italy, isolate source: Human, ribotype: 001)”, the minimum inhibitory concentration was 8 µg/mL with clindamycin; 0.5 µg/mL with metronidazole; 1 µg/mL with vancomycin; 2 µg/mL with linezolid; < 0.001 µg/mL in the assay with rifampicin; 4 µg/mL with meropenem. Further, the results for the minimum inhibitory concentration with tigecycline, with imipenem and with fidaxomicin were 0.06 µg/mL, 4 µg/mL and 0.008 µg/mL, respectively.

“Clostridioides difficile PCR ribotype 001 isolate #281 (European region: South, country: Spain, isolate source: Animal, ribotype: 001)”: the minimum inhibitory concentration is 2 µg/mL with clindamycin; < 0.125 µg/mL with metronidazole; 0.5 µg/mL in the assay with vancomycin; 2 µg/mL in the assay with linezolid; < 0.001 µg/mL in the assay with rifampicin; 4 µg/mL in the assay with meropenem. Besides, the minimum inhibitory concentration in the assay with tigecycline was determined as 0.06 µg/mL; in the assay with imipenem, 2 µg/mL; with fidaxomicin, 0.008 µg/mL.

As to “Clostridioides difficile PCR ribotype 002 isolate #11 (European region: East, country: Poland, isolate source: Human, ribotype: 002)”, the minimum inhibitory concentration is 16 µg/mL with clindamycin; < 0.125 µg/mL with metronidazole; 0.5 µg/mL with vancomycin; 2 µg/mL with linezolid; < 0.001 µg/mL in the assay with rifampicin; 2 µg/mL with meropenem. The results for the minimum inhibitory concentration with tigecycline, with imipenem and with fidaxomicin were 0.06 µg/mL, 2 µg/mL and 0.03 µg/mL, respectively.

In the case of “Clostridioides difficile PCR ribotype 002 isolate #12 (European region: North, country: Sweden, isolate source: Human, ribotype: 002)”, the minimum inhibitory concentration was 16 µg/mL with clindamycin; 8 µg/mL with metronidazole; 2 µg/mL in the assay with vancomycin; 1 µg/mL with linezolid; < 0.001 µg/mL with rifampicin; 4 µg/mL with meropenem. Further, the minimum inhibitory concentration with tigecycline was < 0.03 µg/mL; with imipenem, 4 µg/mL; with fidaxomicin, 0.25 µg/mL.
